Like-named read-outs stand apart in the source and are kept apart here. Marks after values point to notes of the source that are not given here.
Assays:
[1] = Indicated cetane number (AFIDA, ASTM D8183-18); settings: neat, measured
[2] = Yield sooting index (YSI), doped methane/air flame; settings: measured
[3] = literature values (Fioroni, et al.; Burger et al.); cited from earlier work
[4] = literature / database values; cited from earlier work

Structure (SMILES): CCCCOCOCCCC [BB-POME1, dibutoxymethane]
- Cetane number [1]: 70
- YSI [2]: 48
- Cetane number [3]: 67^$
- YSI [4]: 45^$

Structure (SMILES): CCOCOCOCOCC [EE-POME3]
- Cetane number [1]: 80

Structure (SMILES): COCOCOC [MM-POME2]
- Cetane number [3]: 63*

Structure (SMILES): COCOCOCOC [MM-POME3]
- Cetane number [3]: 70*

Structure (SMILES): COCOCOCOCOC [MM-POME4]
- Cetane number [3]: 90*

Structure (SMILES): CC(C)CC(C)(C)C [isooctane, Isooctane]
- YSI [2]: 63.6
- YSI [4]: 61.7

Structure (SMILES): CCCCCCC [n-heptane]
- YSI [4]: 36.0

Structure (SMILES): Cc1ccccc1 [toluene]
- YSI [4]: 170.9

— US11898114B2, “Reactions and methods for producing fuels” (Alliance for Sustainable Energy, LLC, priority 2020, dated 2024)
